Values quoted from earlier work, collected in US10125098B2, “Therapeutic compounds and methods of use thereof” (GENENTECH, INC., priority 2014, dated 2018).

Conditions: lidocaine administered topically (Lidoderm patch); cited from earlier work

CCN(CC)CC(=O)Nc1c(C)cccc1C [lidocaine]
plasma concentrations: about 1 μM
